No constants are given. Whether binding was seen depends on the method and setting. In cells and extracts the contact can be indirect. A result given as binding can be weak or reduced; the word gives no strength.

Protein sequences, listed by entry. Tags and fused reporters are not part of them. Lines headed by an entry give the natural chain unless they say otherwise; changes in a name come on top. Residues count along the entry.
UniProt P35613: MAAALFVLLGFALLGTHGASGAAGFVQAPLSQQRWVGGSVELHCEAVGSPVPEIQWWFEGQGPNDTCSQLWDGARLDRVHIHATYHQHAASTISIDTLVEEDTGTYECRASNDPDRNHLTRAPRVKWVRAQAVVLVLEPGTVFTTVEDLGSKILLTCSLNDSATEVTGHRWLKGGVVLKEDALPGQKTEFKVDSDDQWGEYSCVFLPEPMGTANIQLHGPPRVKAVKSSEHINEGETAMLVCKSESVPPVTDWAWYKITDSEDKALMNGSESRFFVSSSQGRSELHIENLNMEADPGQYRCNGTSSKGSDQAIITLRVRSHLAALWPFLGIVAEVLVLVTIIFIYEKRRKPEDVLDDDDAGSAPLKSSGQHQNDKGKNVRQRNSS
UniProt P10809, residues 27-573: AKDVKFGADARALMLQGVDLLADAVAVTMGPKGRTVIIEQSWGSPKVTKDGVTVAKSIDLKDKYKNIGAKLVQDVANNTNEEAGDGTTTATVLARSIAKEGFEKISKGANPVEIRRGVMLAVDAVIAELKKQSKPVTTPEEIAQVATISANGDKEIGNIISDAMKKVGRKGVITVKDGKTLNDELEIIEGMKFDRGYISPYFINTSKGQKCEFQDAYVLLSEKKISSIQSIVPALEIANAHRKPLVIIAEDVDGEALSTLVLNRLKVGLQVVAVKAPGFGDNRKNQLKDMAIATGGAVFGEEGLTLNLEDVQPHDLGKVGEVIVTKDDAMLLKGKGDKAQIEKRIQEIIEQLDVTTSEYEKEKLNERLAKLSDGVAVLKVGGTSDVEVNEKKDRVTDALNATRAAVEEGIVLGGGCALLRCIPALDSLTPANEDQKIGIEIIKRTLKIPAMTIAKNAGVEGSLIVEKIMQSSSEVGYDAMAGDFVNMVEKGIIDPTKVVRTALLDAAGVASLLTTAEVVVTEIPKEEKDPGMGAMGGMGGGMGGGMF

The test has as its target CD147 (UniProt P35613). The test is described as follows: co-IP; exogenous proteins; cells lysed in NP40 lysis buffer on ice 30 min; 1.5 ug antibody, protein A/G agarose beads, overnight at 4 °C; beads rinsed 3 times with NP40 buffer.

In the case of “heat shock protein 60 (from UniProt P10809 27-573)”, the binding entry is recorded as “binds”.

Values taken from PMC7757041.
